Test results as given in PMC8283784.
Results are given in words; binding and its absence hold for the method and conditions named. In cells and extracts the contact can be indirect. Some entries that bind do so weakly or less than the wild type.

Amino acid sequences for entries named in this document (tags omitted). A change or cut given only in a name is not applied to a line headed by its entry. Chains listed by the source or under a name are the forms on record and can include a tag or linker.
UniProt P03165: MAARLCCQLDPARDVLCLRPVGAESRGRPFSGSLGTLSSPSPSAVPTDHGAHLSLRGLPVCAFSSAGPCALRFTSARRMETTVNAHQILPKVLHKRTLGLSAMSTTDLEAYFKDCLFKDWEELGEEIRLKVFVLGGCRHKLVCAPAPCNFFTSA
UniProt Q16531: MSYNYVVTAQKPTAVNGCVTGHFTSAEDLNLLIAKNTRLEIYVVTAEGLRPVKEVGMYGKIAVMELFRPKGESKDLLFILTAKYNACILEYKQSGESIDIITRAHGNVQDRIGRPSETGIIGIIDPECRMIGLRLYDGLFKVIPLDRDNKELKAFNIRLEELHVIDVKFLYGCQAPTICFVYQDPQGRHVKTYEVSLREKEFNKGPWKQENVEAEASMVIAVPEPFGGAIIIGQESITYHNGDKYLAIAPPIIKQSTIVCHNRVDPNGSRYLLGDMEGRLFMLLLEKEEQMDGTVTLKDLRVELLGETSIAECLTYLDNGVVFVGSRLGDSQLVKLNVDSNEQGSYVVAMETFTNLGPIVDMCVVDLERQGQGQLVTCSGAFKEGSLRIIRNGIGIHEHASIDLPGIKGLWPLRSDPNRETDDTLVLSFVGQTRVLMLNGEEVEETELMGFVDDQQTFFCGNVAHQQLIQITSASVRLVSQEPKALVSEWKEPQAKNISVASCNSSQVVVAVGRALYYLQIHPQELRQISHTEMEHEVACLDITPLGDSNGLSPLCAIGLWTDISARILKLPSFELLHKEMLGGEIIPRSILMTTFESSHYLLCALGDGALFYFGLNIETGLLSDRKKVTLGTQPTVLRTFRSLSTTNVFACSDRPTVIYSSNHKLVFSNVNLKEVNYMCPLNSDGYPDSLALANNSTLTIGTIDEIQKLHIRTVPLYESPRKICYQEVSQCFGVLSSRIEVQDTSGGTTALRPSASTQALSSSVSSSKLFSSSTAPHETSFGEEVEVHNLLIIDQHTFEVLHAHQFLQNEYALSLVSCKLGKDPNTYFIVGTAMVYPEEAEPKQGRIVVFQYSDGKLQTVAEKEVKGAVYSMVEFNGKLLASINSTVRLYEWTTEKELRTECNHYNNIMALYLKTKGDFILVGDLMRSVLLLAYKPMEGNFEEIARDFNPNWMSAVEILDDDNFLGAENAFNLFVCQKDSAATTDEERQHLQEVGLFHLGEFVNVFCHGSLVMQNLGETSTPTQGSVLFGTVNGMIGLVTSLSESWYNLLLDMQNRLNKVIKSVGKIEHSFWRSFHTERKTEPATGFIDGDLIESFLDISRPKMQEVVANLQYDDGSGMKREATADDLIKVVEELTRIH
TRIM5γ (Q9C035-3, form named): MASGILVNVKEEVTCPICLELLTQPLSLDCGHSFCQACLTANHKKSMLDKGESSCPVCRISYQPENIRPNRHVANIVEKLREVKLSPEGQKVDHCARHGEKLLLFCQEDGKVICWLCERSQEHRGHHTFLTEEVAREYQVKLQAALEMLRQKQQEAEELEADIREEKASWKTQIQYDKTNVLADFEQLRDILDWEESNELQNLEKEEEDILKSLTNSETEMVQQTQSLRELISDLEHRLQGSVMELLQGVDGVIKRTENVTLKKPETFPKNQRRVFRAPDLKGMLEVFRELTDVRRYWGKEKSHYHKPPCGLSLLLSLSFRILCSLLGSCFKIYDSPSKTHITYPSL

Legend:
[1] = biological target: HBx protein (hepatitis B virus) (UniProt P03165); test: co-IP; whole cell lysate (2 mg) of PHH cells 4 days after HBV infection; anti-HBx (GS968942), anti-DDB1 or IgG on Dynabeads protein G, overnight at 4°C, 5 washes, immunoblot
[2] = biological target: DDB1 (human (endogenous in PHH)) (UniProt Q16531); test: as above

Substance	binding [1]	binding [2]
DDB1 (from UniProt Q16531 1-1140)	binds	–
TRIM5γ (from UniProt Q9C035-3 1-347)	binds	binds
